The list shows only some results of the screen, not a fair sample: it gathers tests that were run many times, whatever their T/C, doses with no T/C, and many T/C values between a quarter and a half above the control. Other doses and runs of a compound stand elsewhere. T/C is the treated group as % of the vehicle group. Some doses have a count of surviving animals in place of a T/C: the source holds a T/C of zero for them, seemingly a mark for toxic or unscored doses. Some doses without a T/C left all or most animals alive at the check, yet need not have been tolerated: the source hardly ever lists a survival T/C far under the control, and the zero likely stands for such cases as well. Survivors were counted at the toxicity check, usually on the fifth day, unless a day is given; later deaths do not show. Schedules are NCI's codes, taken here to give the interval after Q, in days (D) or hours (H), and the number of doses after X. Some doses were run more than once; the results are listed from low to high. Some structures stand for samples that the source files as different forms (salt, stereo form or complex); doses refer to the form tested. Where survival is the endpoint, this PubChem deposit counts one and a half times the control or more as active, and values a quarter to a half above the control carry no call in these data; other NCI protocols may use other cut-offs. Some T/C values carry the count of animals alive at the toxicity check (mostly the fifth day); without a count, all were alive then.
System: L1210 leukemia ip in BDF1 mice, survival T/C
Assay: NCI In Vivo Anticancer Drug Screen. Data for tumor model L1210 Leukemia (intraperitoneal) in B6D2F1 (BDF1) mice
Details: T/C endpoint: mean survival time, higher T/C = longer survival
[1] = dose: 18.7 mg/kg/injection, schedule: Q01DX001 (ip), vehicle: carboxymethylcellulose (CMC)
[2] = dose: 25.0 mg/kg/injection, schedule: Q01DX001 (ip), vehicle: carboxymethylcellulose (CMC)
[3] = dose: 50.0 mg/kg/injection, schedule: Q01DX001 (ip), vehicle: carboxymethylcellulose (CMC)
[4] = dose: 400.0 mg/kg/injection, schedule: Q01DX009 (ip), vehicle: Klucel (hydroxypropylcellulose) (HPC)
[5] = dose: 300.0 mg/kg/injection, schedule: Q01DX001 (ip), vehicle: saline
[6] = dose: 200.0 mg/kg/injection, schedule: Q01DX001 (ip), vehicle: carboxymethylcellulose (CMC)
[7] = dose: 200.0 mg/kg/injection, schedule: Q04DX003 (ip), vehicle: Klucel (hydroxypropylcellulose) (HPC)
[8] = dose: 80.0 mg/kg/injection, schedule: Q01DX001 (ip), vehicle: saline
[9] = dose: 100.0 mg/kg/injection, schedule: Q04DX002 (ip), vehicle: Klucel (hydroxypropylcellulose) (HPC)
[10] = dose: 200.0 mg/kg/injection, schedule: Q04DX002 (ip), vehicle: Klucel (hydroxypropylcellulose) (HPC)
[11] = dose: 400.0 mg/kg/injection, schedule: Q04DX002 (ip), vehicle: Klucel (hydroxypropylcellulose) (HPC)

Which results are given for `COc1ccc(CC(N)C(=O)O)cc1N(CCCl)CCCl` (centres undefined)?
T/C (dose: 0.08 mg/kg/injection, schedule: Q01DX009 (ip), vehicle: carboxymethylcellulose (CMC)): 135 % of control; T/C (dose: 0.15 mg/kg/injection, schedule: Q01DX009 (ip), vehicle: carboxymethylcellulose (CMC), evaluated on day 30): 130 % of control; T/C (dose: 0.15 mg/kg/injection, schedule: Q01DX009 (ip), vehicle: carboxymethylcellulose (CMC), run until all animals had died): 127 and 131 % of control; T/C (dose: 0.3 mg/kg/injection, schedule: Q01DX009 (ip), vehicle: carboxymethylcellulose (CMC)): 127 % of control; T/C (dose: 0.6 mg/kg/injection, schedule: Q01DX009 (ip), vehicle: carboxymethylcellulose (CMC), evaluated on day 30): 144 % of control; T/C (dose: 0.6 mg/kg/injection, schedule: Q01DX009 (ip), vehicle: carboxymethylcellulose (CMC), run until all animals had died): 138 % of control; T/C (dose: 0.75 mg/kg/injection, schedule: Q01DX009 (ip), vehicle: carboxymethylcellulose (CMC)): 143 % of control; T/C (dose: 0.9 mg/kg/injection, schedule: Q01DX009 (ip), vehicle: carboxymethylcellulose (CMC)): 129 % of control; T/C (dose: 1.2 mg/kg/injection, schedule: Q01DX009 (ip), vehicle: carboxymethylcellulose (CMC)): 143 % of control [5 of 6 alive]; T/C (dose: 1.3 mg/kg/injection, schedule: Q01DX009 (ip), vehicle: carboxymethylcellulose (CMC)): 137 and 139 % of control; T/C (dose: 2.5 mg/kg/injection, schedule: Q01DX009 (ip), vehicle: carboxymethylcellulose (CMC)): 134 % of control; T/C (dose: 3.0 mg/kg/injection, schedule: Q01DX009 (ip), vehicle: carboxymethylcellulose (CMC)): 148 % of control; T/C (dose: 5.0 mg/kg/injection, schedule: Q01DX001 (ip), vehicle: carboxymethylcellulose (CMC)): 135 % of control; T/C (dose: 5.0 mg/kg/injection, schedule: Q01DX009 (ip), vehicle: carboxymethylcellulose (CMC)): 141 % of control; survivor count (dose: 5.3 mg/kg/injection, schedule: Q01DX009 (ip), vehicle: carboxymethylcellulose (CMC)): 5 of 6; survivor count (dose: 8.0 mg/kg/injection, schedule: Q01DX009 (ip), vehicle: carboxymethylcellulose (CMC)): 6 of 6; T/C (dose: 8.3 mg/kg/injection, schedule: Q01DX001 (ip), vehicle: carboxymethylcellulose (CMC)): 131 and 144 % of control [5 of 6 alive]; survivor count (dose: 11.0 mg/kg/injection, schedule: Q01DX009 (ip), vehicle: carboxymethylcellulose (CMC)): 6 of 6; survivor count (dose: 11.1 mg/kg/injection, schedule: Q01DX009 (ip), vehicle: carboxymethylcellulose (CMC)): 5 of 6; T/C (dose: 12.5 mg/kg/injection, schedule: Q01DX001 (ip), vehicle: carboxymethylcellulose (CMC)): 140 % of control; survivor count (dose: 16.0 mg/kg/injection, schedule: Q01DX009 (ip), vehicle: carboxymethylcellulose (CMC)): 4 of 6; survivor count (dose: 16.6 mg/kg/injection, schedule: Q01DX009 (ip), vehicle: carboxymethylcellulose (CMC)): 1 of 6; survivor count (dose: 18.0 mg/kg/injection, schedule: Q01DX009 (ip), vehicle: carboxymethylcellulose (CMC)): 1 of 6; T/C [1]: 127 % of control; survivor count [1]: 5 of 6; survivor count [2]: 3 of 6 and 6 of 6; survivor count (dose: 25.0 mg/kg/injection, schedule: Q01DX009 (ip), vehicle: carboxymethylcellulose (CMC)): 0 of 6; survivor count (dose: 37.5 mg/kg/injection, schedule: Q01DX001 (ip), vehicle: carboxymethylcellulose (CMC)): 4 of 6; survivor count (dose: 37.5 mg/kg/injection, schedule: Q01DX009 (ip), vehicle: carboxymethylcellulose (CMC)): 0 of 6; survivor count [3]: 0 of 6 and 1 of 6

`CC(=O)c1ccc(NCC2N=C(N)N=C(N)N2c2ccccc2)cc1` (centres undefined) was tested. Which survivor count [4] did it give?
The survivor count was 0 of 6.

What about the survivor count (dose: 400.0 mg/kg/injection, schedule: Q04DX003 (ip), vehicle: Klucel (hydroxypropylcellulose) (HPC)) of the same molecule?
Its survivor count is 1 of 6.

Which survivor count (dose: 60.0 mg/kg/injection, schedule: Q01DX001 (ip), vehicle: saline) does the source give for `COc1cc(N)c2ncccc2c1` here?
The survivor count was 1 of 6.

What about the survivor count (dose: 75.0 mg/kg/injection, schedule: Q01DX001 (ip), vehicle: saline) of the same molecule?
The survivor count was 2 of 6.

What about the survivor count (dose: 150.0 mg/kg/injection, schedule: Q01DX001 (ip), vehicle: carboxymethylcellulose (CMC)) of the same molecule?
The survivor count was 3 of 6.

What about the survivor count (dose: 150.0 mg/kg/injection, schedule: Q01DX001 (ip), vehicle: saline) of the same molecule?
The survivor count was 0 of 6.

What about the survivor count (dose: 300.0 mg/kg/injection, schedule: Q01DX001 (ip), vehicle: carboxymethylcellulose (CMC)) of the same molecule?
Its survivor count is 0 of 6.

And the survivor count [5]?
The survivor count was 0 of 6.

With `NCCCP(c1ccccc1)c1ccccc1` as the molecule, how does the survivor count [5] read?
Its survivor count is 1 of 6.

For `CCC1OCC(C(Cl)CCl)O1` (centres undefined), which survivor count (dose: 200.0 mg/kg/injection, schedule: Q01DX009 (ip), vehicle: saline sonified) is on record?
The survivor count was 3 of 6.

And the survivor count (dose: 400.0 mg/kg/injection, schedule: Q01DX009 (ip), vehicle: saline sonified)?
The survivor count was 0 of 6.

For `C[C@@H]1C[C@@]2(C)[C@@H](CC[C@@H]3[C@@H]2CC[C@]2(C)[C@@H](OC4CCCCO4)CC[C@@H]32)CC1=O` (some centres undefined), which survivor count [6] is on record?
Its survivor count is 4 of 4.

`CC(C)NC(C)Cc1ccccc1` (centres undefined) was tested. Which survivor count (dose: 100.0 mg/kg/injection, schedule: Q01DX001 (ip), vehicle: saline) did it give?
Its survivor count is 3 of 6.

`CCC[CH2][Pb]([Cl])([Cl])[CH2]CCC` was tested. Which survivor count (dose: 10.0 mg/kg/injection, schedule: Q01DX001 (ip), vehicle: carboxymethylcellulose (CMC)) did it give?
The survivor count was 0 of 4.

And the survivor count [2]?
Its survivor count is 1 of 4.

And the survivor count [3]?
Its survivor count is 0 of 4 and 3 of 4.

And the survivor count (dose: 80.0 mg/kg/injection, schedule: Q01DX001 (ip), vehicle: carboxymethylcellulose (CMC))?
Its survivor count is 0 of 4.

And the survivor count (dose: 100.0 mg/kg/injection, schedule: Q01DX001 (ip), vehicle: carboxymethylcellulose (CMC))?
Its survivor count is 0 of 4.

And the survivor count [6]?
The survivor count was 0 of 4 and 1 of 4.

What about the survivor count (dose: 400.0 mg/kg/injection, schedule: Q01DX001 (ip), vehicle: carboxymethylcellulose (CMC)) of the same molecule?
Its survivor count is 0 of 4.

`CCCCCCCCCCC(=O)CCC` was tested. Which survivor count (dose: 200.0 mg/kg/injection, schedule: Q01DX009 (ip), vehicle: Klucel (hydroxypropylcellulose) (HPC)) did it give?
Its survivor count is 6 of 6.

What about the survivor count [7] of the same molecule?
Its survivor count is 6 of 6.

How did the survivor count [7] turn out when `CC/C(=C/c1ccc(OC)c(OC)c1)[N+](=O)[O-]` was run?
The survivor count was 6 of 6.

How did the T/C (dose: 38.0 mg/kg/injection, schedule: Q01DX015 (ip), vehicle: saline) turn out when `CS(=O)(=O)OCCN(CCOS(C)(=O)=O)c1cccc(C(F)(F)F)c1` was run?
Its T/C is 127 % of control.

And the T/C (dose: 40.0 mg/kg/injection, schedule: Q01DX001 (ip), vehicle: saline)?
Its T/C is 132 % of control.

What about the survivor count [8] of the same molecule?
Its survivor count is 3 of 4.

Which survivor count (dose: 12.5 mg/kg/injection, schedule: Q01DX009 (ip), vehicle: saline) does the source give for `C=C1C2CCC3C4(C)CC(OC5OC(CO)C(OS(=O)(=O)O)C(OS(=O)(=O)O)C5OC(=O)CCCC)CC(C(=O)O)C4CCC3(C2)C1O` (centres undefined) here?
The survivor count was 5 of 6.

And the survivor count (dose: 400.0 mg/kg/injection, schedule: Q04DX003 (ip), vehicle: saline with Tween-80)?
Its survivor count is 3 of 6.

How did the survivor count [4] turn out when `O=C(OCc1ccccc1)C(=O)OCc1ccccc1` was run?
Its survivor count is 2 of 6.

For `O=C(Nc1cccnc1)c1cccc([N+](=O)[O-])c1`, which T/C [9] is on record?
The T/C was 125 % of control [2 of 3 alive].

Which T/C (dose: 25.0 mg/kg/injection, schedule: Q01DX009 (ip), vehicle: saline sonified) does the source give for `CC1(C)N=C(N)N=C(N)N1c1ccc(OCCOc2ccc(S(=O)(=O)F)cc2)c(Cl)c1` here?
The T/C was 128 % of control.

And the T/C (dose: 50.0 mg/kg/injection, schedule: Q04DX003 (ip), vehicle: saline sonified)?
The T/C was 127 % of control.

Which results are given for `O=C(C1C(c2ccccc2)C1c1ccccc1)N(CCCl)Cc1ccccc1` (centres undefined)?
survivor count [9]: 3 of 3; survivor count [10]: 3 of 3; survivor count [11]: 3 of 3

With `COc1ccc(N(N=O)C(C)=O)cc1` as the molecule, how does the survivor count [8] read?
The survivor count was 0 of 4.

`CCOC(=O)CNc1ccc(C)c(F)c1` was tested. Which survivor count [10] did it give?
Its survivor count is 2 of 3.

What about the survivor count [11] of the same molecule?
Its survivor count is 0 of 3.

For `Nc1ccc(N=Nc2ccc(OCCN(CCO)CCO)cc2)c(N)n1`, which survivor count (dose: 400.0 mg/kg/injection, schedule: Q01DX001 (ip), vehicle: saline) is on record?
The survivor count was 6 of 6.

Reference: PubChem BioAssay AID248 (DTP/NCI, 2004)
